PMC3169596

The chains behind the UniProt entries cited, without tags or fusion partners. Residues count along the entry.
UniProt P08047, whole entry: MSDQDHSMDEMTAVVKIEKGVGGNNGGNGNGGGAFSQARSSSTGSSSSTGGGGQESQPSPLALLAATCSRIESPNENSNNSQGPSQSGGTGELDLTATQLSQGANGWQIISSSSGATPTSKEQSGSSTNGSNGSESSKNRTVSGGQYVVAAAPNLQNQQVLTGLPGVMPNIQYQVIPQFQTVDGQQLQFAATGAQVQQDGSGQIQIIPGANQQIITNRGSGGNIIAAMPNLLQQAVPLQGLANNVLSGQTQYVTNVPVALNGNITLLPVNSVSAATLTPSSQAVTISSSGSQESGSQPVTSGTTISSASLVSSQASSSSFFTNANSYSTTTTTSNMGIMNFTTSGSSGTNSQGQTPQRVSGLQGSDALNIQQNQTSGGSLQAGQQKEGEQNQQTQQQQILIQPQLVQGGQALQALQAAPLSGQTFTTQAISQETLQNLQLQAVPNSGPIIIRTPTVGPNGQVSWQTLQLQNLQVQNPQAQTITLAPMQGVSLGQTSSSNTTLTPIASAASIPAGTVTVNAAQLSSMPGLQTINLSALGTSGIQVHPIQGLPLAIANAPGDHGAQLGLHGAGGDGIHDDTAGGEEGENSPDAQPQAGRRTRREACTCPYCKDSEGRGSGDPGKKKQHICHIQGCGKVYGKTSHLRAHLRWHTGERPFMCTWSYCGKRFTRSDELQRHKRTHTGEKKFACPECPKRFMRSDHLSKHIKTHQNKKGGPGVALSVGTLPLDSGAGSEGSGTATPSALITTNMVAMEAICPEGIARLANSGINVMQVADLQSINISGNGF
UniProt P02769, 25-607: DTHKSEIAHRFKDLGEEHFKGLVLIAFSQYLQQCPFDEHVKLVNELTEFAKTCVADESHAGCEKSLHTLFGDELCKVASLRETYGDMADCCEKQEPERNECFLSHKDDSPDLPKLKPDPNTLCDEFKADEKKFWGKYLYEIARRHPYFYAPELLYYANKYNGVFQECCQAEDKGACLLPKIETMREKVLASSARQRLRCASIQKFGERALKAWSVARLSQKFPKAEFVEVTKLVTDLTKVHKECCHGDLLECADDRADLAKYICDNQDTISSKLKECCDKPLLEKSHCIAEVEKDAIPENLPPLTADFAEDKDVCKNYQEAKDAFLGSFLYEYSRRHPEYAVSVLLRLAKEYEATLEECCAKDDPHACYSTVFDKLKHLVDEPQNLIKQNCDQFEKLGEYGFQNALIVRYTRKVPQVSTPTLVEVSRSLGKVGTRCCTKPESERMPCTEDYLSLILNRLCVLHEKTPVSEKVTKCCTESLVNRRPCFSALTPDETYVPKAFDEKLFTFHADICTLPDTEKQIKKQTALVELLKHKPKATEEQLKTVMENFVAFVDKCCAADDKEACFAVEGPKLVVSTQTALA

What was measured:
[1] = target: T1, MAZ-GST (UniProt P56270); assay: competition with a labelled probe; conditions: 3 ug MAZ, 10 nM labelled qhras-1, 10- and 50-fold cold decoy, TINA (P) after nt 2 and after nt 19, EMSA: 20 mM Tris-HCl pH 8, 30 mM KCl, 1.5 mM MgCl2, 1 mM DTT, 8% glycerol, 5 mM NaF, 1 mM Na3VO4, 2.5 ng/ml poly[dI-dC], 30 min room temperature, recombinant protein, protein details: GST, synthetic backbone
T1 sequence (looked up, limits assumed): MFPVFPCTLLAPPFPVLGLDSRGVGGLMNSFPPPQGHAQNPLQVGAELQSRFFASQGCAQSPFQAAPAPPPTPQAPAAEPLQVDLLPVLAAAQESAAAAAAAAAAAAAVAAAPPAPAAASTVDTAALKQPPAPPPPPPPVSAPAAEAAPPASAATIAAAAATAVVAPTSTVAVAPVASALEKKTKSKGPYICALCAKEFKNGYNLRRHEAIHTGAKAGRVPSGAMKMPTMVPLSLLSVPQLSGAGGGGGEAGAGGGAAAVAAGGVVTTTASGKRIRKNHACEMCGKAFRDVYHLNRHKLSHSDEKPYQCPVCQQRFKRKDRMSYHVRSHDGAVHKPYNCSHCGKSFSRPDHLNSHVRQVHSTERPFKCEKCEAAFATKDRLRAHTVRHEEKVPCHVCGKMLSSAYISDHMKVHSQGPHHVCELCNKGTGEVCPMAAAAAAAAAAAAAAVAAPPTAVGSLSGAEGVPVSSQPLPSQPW

[2] = target: Sp1-GST (UniProt P08047); assay: EMSA; conditions: EMSA: 20 mM Tris-HCl pH 8, 30 mM KCl, 1.5 mM MgCl2, 1 mM DTT, 8% glycerol, 5 mM NaF, 1 mM Na3VO4, 2.5 ng/ml poly[dI-dC], 30 min room temperature, recombinant protein, protein details: GST, label: 33P
[3] = target: T1, MAZ-GST; assay: EMSA; conditions: EMSA: 20 mM Tris-HCl pH 8, 30 mM KCl, 1.5 mM MgCl2, 1 mM DTT, 8% glycerol, 5 mM NaF, 1 mM Na3VO4, 2.5 ng/ml poly[dI-dC], 30 min room temperature, recombinant protein, protein details: GST, label: 33P
[4] = target: BSA (UniProt P02769); assay: FRET melting; conditions: r = 10, no effect on melting, 50 mM KCl, 50 uM Zn acetate, FRET: 50 mM Tris-HCl pH 7.4, 50 mM KCl or 100 mM NaCl, commercial protein, label: 5' FAM, 3' TAMRA, folded or branched DNA
[5] = target: T1, MAZ-GST; assay: FRET melting; conditions: 100 mM NaCl, 50 uM Zn acetate, destabilizes G4 at r = 2.5-10, FRET: 50 mM Tris-HCl pH 7.4, 50 mM KCl or 100 mM NaCl, recombinant protein, protein details: GST, label: FAM and TAMRA, folded or branched …
[6] = pH 9, interaction inhibited, folded or branched DNA
[7] = 50 mM CsCl, both complexes destabilized, single-stranded DNA

## TCGGGTTGCGGGCGCAGGGCACGGGCGG [G4-decoy 4]
[1]; LNA residues (positions lost in text)
  binding result: binds

## TCGGGTTGCGGGCGCAGGGCACGGGCG [qhras-1 (quadruplex hras-1, H1)]
[2]; binds, weaker than MAZ, folded or branched DNA
  binding result: binds more weakly
[3]; [6]
  binding result: binds more weakly

## TCGGGTTGCGGGCGCAGGGCACGGGCGG [G4-decoy 5]
[1]; LNA residues differ from decoy 4 (positions lost in text)
  binding result: binds

## TCGGGTTGCGGGCGCAGGGCACGGGCG [qhras-1, FRET-labelled]
[4]
  binding result: no binding

## CGAGGCCGGGGCGGGGCGGGGGCGGGGGCGCGCGGT [qhras-2, FRET-labelled]
[5]
  binding result: binds

## CGAGGCCGGGGCGGGGCGGGGGCGGGGGCGCGCGGT [qhras-2 (quadruplex hras-2, H2)]
[2]; folded or branched DNA
  binding result: no binding
[3]; 50 mM KCl, pH 7.4, poly d(I-C), apparent Kd given for the HRAS quadruplexes together, folded or branched DNA
  Kd: 1500 nM
[3]; [6]
  binding result: binds more weakly

## CGAGGCCGGGGCGGGGCGGGGGCGGGGGCGCGCGGT (double strand) [duplex hras-2]
[2]
  binding result: binds
[3]
  binding result: binds

## CGAGGCCGGGGCGGGGCGGGGGCGGGGGCGCGCGGT [hras-2 in Cs+ (unstructured)]
[3]; [7]
  binding result: binds more weakly

## TCGGGTTGCGGGCGCAGGGCACGGGCG [hras-1 in Cs+ (unstructured)]
[3]; [7]
  binding result: binds more weakly

## TCGGGTTGCGGGCGCAGGGCACGGGCG (double strand) [duplex hras-1]
[3]
  binding result: binds

For some assays here: A negative result means that nothing was seen under these conditions. For some assays here: Construct, isoform or probe ends are uncertain for at least one entry. For some assays here: The comparison behind a weaker result is the experiment's own reference, which may not be listed here. For some assays here: At least one verdict rests on a figure or table, not on a statement of the authors. For some assays here: Tags and fusion partners may be left off the protein sequences shown.
